Among the data in publication PMC4449194 are binding values, retold here.

Sequences of proteins named here, by UniProt entry; tags and fusion partners are left off.
UniProt Q96EB6: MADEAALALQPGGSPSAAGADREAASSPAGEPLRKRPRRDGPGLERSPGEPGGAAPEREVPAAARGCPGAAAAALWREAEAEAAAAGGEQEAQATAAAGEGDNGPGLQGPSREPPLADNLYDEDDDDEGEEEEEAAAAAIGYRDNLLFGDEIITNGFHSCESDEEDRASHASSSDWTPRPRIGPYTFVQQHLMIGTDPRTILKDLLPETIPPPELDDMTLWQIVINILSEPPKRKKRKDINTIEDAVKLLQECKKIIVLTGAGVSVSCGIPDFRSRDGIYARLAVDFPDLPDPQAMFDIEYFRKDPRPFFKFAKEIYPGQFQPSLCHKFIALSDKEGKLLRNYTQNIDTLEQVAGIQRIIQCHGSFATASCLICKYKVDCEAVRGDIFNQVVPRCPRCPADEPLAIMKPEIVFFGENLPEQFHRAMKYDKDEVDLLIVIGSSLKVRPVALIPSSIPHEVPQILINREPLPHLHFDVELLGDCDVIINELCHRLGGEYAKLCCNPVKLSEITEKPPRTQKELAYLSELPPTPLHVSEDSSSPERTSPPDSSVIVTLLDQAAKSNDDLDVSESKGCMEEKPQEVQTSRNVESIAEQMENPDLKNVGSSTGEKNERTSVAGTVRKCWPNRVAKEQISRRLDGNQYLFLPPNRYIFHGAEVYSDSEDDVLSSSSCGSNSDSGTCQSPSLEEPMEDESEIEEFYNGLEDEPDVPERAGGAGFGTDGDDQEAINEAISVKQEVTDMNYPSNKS
UniProt P20226: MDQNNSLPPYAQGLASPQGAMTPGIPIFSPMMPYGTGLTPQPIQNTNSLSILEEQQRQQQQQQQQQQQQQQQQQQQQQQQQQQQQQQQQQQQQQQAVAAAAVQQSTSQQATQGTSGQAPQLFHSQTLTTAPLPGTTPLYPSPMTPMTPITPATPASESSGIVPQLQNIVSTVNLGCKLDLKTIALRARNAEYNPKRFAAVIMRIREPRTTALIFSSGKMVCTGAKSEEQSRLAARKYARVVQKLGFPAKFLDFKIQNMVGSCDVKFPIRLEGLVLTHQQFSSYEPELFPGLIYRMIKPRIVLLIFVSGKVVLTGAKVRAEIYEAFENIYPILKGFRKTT

No constants are given. Whether binding was seen depends on the method and setting. In cells and extracts the contact can be indirect. Some binding calls cover weakened binding; strength is not graded here. For some assays here: Where a sequence is shown, tags or fusion partners need not be part of it.

In assay [1] the target is T1, Flag-hTAFI110/WT (stable HeLa line) (human) (UniProt Q15572).
T1 sequence: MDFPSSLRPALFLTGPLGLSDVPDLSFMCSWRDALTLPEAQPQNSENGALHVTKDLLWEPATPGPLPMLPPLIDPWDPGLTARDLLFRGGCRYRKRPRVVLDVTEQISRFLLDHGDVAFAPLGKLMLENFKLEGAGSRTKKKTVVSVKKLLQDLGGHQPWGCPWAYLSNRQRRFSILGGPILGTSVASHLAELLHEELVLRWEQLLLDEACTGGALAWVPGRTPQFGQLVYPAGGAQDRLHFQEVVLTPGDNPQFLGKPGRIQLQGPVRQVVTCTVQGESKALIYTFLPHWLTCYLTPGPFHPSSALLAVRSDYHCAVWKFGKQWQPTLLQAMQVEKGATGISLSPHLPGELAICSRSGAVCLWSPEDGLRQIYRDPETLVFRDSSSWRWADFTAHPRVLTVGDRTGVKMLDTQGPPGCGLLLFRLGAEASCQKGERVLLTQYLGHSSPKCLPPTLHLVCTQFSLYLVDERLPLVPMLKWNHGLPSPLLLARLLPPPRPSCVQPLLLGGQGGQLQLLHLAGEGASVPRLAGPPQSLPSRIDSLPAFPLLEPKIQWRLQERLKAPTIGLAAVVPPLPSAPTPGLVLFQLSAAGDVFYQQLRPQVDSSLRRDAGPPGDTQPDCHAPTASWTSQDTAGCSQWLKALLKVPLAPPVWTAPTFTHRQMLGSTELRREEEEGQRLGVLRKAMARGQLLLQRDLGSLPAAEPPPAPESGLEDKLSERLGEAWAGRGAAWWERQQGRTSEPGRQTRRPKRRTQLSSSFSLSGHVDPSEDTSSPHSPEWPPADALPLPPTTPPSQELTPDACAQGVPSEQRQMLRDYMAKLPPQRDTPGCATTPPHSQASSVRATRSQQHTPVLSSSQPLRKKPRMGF
Kind of assay: co-IP; Flag-hTAFI110 (WT or T852A) immunoprecipitated from stable HeLa lines, nuclear lysate, 250 mM KCl; blots with anti-TAFI68 and anti-TBP.

In assay [2] the target is T2, Flag-hTAFI110/T852A (stable HeLa line) (human) (UniProt Q15572).
T2 sequence: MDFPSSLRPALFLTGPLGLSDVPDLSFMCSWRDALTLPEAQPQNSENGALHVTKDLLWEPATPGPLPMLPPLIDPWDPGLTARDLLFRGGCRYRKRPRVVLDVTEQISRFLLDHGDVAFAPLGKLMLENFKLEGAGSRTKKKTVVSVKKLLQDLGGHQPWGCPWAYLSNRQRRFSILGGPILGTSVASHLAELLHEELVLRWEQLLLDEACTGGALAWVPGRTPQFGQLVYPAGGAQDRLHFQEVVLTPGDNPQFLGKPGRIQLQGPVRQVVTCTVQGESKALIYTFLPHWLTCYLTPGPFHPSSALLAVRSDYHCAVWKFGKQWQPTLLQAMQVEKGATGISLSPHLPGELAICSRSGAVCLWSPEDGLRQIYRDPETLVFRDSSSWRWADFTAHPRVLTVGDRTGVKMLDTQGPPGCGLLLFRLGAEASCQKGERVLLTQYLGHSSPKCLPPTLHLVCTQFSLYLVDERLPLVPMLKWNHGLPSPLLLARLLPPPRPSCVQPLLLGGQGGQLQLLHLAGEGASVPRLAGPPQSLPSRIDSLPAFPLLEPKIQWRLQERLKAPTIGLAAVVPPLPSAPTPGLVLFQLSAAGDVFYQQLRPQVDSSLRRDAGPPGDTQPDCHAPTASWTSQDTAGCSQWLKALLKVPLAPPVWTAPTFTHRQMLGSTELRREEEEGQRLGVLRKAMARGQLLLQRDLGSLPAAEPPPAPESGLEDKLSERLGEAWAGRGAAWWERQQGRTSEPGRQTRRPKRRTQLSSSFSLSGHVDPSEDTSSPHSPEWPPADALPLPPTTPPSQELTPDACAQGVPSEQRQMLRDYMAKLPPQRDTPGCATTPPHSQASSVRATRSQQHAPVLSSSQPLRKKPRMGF
Described as above.

Assay [3] concerns the target GFP-SIRT1 (UniProt Q96EB6). Put plainly: co-IP; Flag-hTAFI68 co-expressed with GFP-tagged Sirtuins in HEK293T; lysis in 300 mM KCl, 20 mM Tris-HCl pH 7.9, 5 mM MgCl2, 0.2 mM EDTA, 0.5% Triton X-100; capture on GFP-Trap beads 4 h at 4°C; blot with anti-TAFI68.
Assay [4] deals with GST-SIRT1 (UniProt Q96EB6). Kind of assay: pull-down; 2 ug GST-tagged protein immobilised on Glutathione-Sepharose 4B, incubated with in vitro synthesized 35S-labeled proteins for 4 h at 4°C in 120 mM KCl, 20 mM Tris-HCl pH 7.9, 5 mM MgCl2, 0.2 mM EDTA, 10% glycerol, 0.2% NP-40; SDS-PAGE and PhosphorImaging; only the target purified.
The target of assay [5] is T3, GST-hCdc14B (human) (UniProt O60729).
T3 sequence: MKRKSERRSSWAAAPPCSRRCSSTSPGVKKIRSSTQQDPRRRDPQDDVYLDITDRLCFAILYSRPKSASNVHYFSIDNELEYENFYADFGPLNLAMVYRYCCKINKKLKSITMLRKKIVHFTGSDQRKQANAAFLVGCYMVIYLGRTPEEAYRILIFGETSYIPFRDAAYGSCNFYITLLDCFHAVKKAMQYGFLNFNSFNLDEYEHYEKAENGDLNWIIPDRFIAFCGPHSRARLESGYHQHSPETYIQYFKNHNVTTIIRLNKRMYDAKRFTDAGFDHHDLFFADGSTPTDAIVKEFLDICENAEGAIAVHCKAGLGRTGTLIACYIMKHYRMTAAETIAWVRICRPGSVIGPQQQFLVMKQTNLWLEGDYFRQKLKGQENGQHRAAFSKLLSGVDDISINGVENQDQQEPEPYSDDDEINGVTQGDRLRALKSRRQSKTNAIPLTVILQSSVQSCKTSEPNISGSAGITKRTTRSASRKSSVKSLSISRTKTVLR
The assay is described as above.

In the case of “endogenous TBP (from UniProt P20226 1-339)”, the binding result in assay [1] and in assay [2] was “binds” each time.

B1: Flag-hTAFI68 (HEK293T) (protein, UniProt Q53T94 1-588)
chain: MDLEEAEEFKERCTQCAAVSWGLTDEGKYYCTSCHNVTERYQEVTNTDLIPNTQIKALNRGLKKKNNTEKGWDWYVCEGFQYILYQQAEALKNLGVGPELKNDVLHNFWKRYLQKSKQAYCKNPVYTTGRKPTVLEDNLSHSDWASEPELLSDVSCPPFLESGAESQSDIHTRKPFPVSKASQSETSVCSGSLDGVEYSQRKEKGIVKMTMPQTLAFCYLSLLWQREAITLSDLLRFVEEDHIPYINAFQHFPEQMKLYGRDRGIFGIESWPDYEDIYKKTVEVGTFLDLPRFPDITEDCYLHPNILCMKYLMEVNLPDEMHSLTCHVVKMTGMGEVDFLTFDPIAKMAKTVKYDVQAVAIIVVVLKLLFLLDDSFEWSLSNLAEKHNEKNKKDKPWFDFRKWYQIMKKAFDEKKQKWEEARAKYLWKSEKPLYYSFVDKPVAYKKREMVVNLQKQFSTLVESTATAGKKSPSSFQFNWTEEDTDRTCFHGHSLQGVLKEKGQSLLTKNSLYWLSTQKFCRCYCTHVTTYEESNYSLSYQFILNLFSFLLRIKTSLLHEEVSLVEKKLFEKKYSVKRKKSRSKKVRRH
Consider B1, for which the binding result in assay [3] is “binds”.

B2: 35S-labeled hTAFI68 (protein, UniProt Q53T94 1-588)
chain: MDLEEAEEFKERCTQCAAVSWGLTDEGKYYCTSCHNVTERYQEVTNTDLIPNTQIKALNRGLKKKNNTEKGWDWYVCEGFQYILYQQAEALKNLGVGPELKNDVLHNFWKRYLQKSKQAYCKNPVYTTGRKPTVLEDNLSHSDWASEPELLSDVSCPPFLESGAESQSDIHTRKPFPVSKASQSETSVCSGSLDGVEYSQRKEKGIVKMTMPQTLAFCYLSLLWQREAITLSDLLRFVEEDHIPYINAFQHFPEQMKLYGRDRGIFGIESWPDYEDIYKKTVEVGTFLDLPRFPDITEDCYLHPNILCMKYLMEVNLPDEMHSLTCHVVKMTGMGEVDFLTFDPIAKMAKTVKYDVQAVAIIVVVLKLLFLLDDSFEWSLSNLAEKHNEKNKKDKPWFDFRKWYQIMKKAFDEKKQKWEEARAKYLWKSEKPLYYSFVDKPVAYKKREMVVNLQKQFSTLVESTATAGKKSPSSFQFNWTEEDTDRTCFHGHSLQGVLKEKGQSLLTKNSLYWLSTQKFCRCYCTHVTTYEESNYSLSYQFILNLFSFLLRIKTSLLHEEVSLVEKKLFEKKYSVKRKKSRSKKVRRH
modifications: ^35S-labeled
Turning to B2, the binding entry in assay [4] was “binds”.

B3: endogenous hTAFI68 (protein, UniProt Q53T94 1-588)
chain: MDLEEAEEFKERCTQCAAVSWGLTDEGKYYCTSCHNVTERYQEVTNTDLIPNTQIKALNRGLKKKNNTEKGWDWYVCEGFQYILYQQAEALKNLGVGPELKNDVLHNFWKRYLQKSKQAYCKNPVYTTGRKPTVLEDNLSHSDWASEPELLSDVSCPPFLESGAESQSDIHTRKPFPVSKASQSETSVCSGSLDGVEYSQRKEKGIVKMTMPQTLAFCYLSLLWQREAITLSDLLRFVEEDHIPYINAFQHFPEQMKLYGRDRGIFGIESWPDYEDIYKKTVEVGTFLDLPRFPDITEDCYLHPNILCMKYLMEVNLPDEMHSLTCHVVKMTGMGEVDFLTFDPIAKMAKTVKYDVQAVAIIVVVLKLLFLLDDSFEWSLSNLAEKHNEKNKKDKPWFDFRKWYQIMKKAFDEKKQKWEEARAKYLWKSEKPLYYSFVDKPVAYKKREMVVNLQKQFSTLVESTATAGKKSPSSFQFNWTEEDTDRTCFHGHSLQGVLKEKGQSLLTKNSLYWLSTQKFCRCYCTHVTTYEESNYSLSYQFILNLFSFLLRIKTSLLHEEVSLVEKKLFEKKYSVKRKKSRSKKVRRH
For the molecule B3, the binding entry in assay [1] and in assay [2] was “binds” throughout.

B4: 35S-labeled hTAFI110 (protein, UniProt Q15572-1 1-869)
chain: MDFPSSLRPALFLTGPLGLSDVPDLSFMCSWRDALTLPEAQPQNSENGALHVTKDLLWEPATPGPLPMLPPLIDPWDPGLTARDLLFRGGCRYRKRPRVVLDVTEQISRFLLDHGDVAFAPLGKLMLENFKLEGAGSRTKKKTVVSVKKLLQDLGGHQPWGCPWAYLSNRQRRFSILGGPILGTSVASHLAELLHEELVLRWEQLLLDEACTGGALAWVPGRTPQFGQLVYPAGGAQDRLHFQEVVLTPGDNPQFLGKPGRIQLQGPVRQVVTCTVQGESKALIYTFLPHWLTCYLTPGPFHPSSALLAVRSDYHCAVWKFGKQWQPTLLQAMQVEKGATGISLSPHLPGELAICSRSGAVCLWSPEDGLRQIYRDPETLVFRDSSSWRWADFTAHPRVLTVGDRTGVKMLDTQGPPGCGLLLFRLGAEASCQKGERVLLTQYLGHSSPKCLPPTLHLVCTQFSLYLVDERLPLVPMLKWNHGLPSPLLLARLLPPPRPSCVQPLLLGGQGGQLQLLHLAGEGASVPRLAGPPQSLPSRIDSLPAFPLLEPKIQWRLQERLKAPTIGLAAVVPPLPSAPTPGLVLFQLSAAGDVFYQQLRPQVDSSLRRDAGPPGDTQPDCHAPTASWTSQDTAGCSQWLKALLKVPLAPPVWTAPTFTHRQMLGSTELRREEEEGQRLGVLRKAMARGQLLLQRDLGSLPAAEPPPAPESGLEDKLSERLGEAWAGRGAAWWERQQGRTSEPGRQTRRPKRRTQLSSSFSLSGHVDPSEDTSSPHSPEWPPADALPLPPTTPPSQELTPDACAQGVPSEQRQMLRDYMAKLPPQRDTPGCATTPPHSQASSVRATRSQQHTPVLSSSQPLRKKPRMGF
modifications: ^35S-labeled
In the case of B4, the binding entry in assay [4] and in assay [5] was “binds” throughout.
